# According to PubChem BioAssay (Tox21):
# Protein sequences, listed by entry. Tags and fused reporters are not part of them. Lines headed by an entry give the natural chain unless they say otherwise; changes in a name come on top.
# UniProt P11229: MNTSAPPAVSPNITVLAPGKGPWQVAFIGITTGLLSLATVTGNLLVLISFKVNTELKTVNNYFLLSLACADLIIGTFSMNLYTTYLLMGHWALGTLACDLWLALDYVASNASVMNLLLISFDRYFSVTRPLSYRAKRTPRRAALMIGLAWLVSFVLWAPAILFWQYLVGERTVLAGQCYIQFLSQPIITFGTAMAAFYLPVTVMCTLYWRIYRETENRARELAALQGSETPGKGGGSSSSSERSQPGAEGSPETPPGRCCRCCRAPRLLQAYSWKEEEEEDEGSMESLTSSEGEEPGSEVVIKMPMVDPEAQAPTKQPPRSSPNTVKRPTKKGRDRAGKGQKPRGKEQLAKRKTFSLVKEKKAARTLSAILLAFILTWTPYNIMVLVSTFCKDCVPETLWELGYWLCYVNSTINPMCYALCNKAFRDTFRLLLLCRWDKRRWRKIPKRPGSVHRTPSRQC
# UniProt P14416, whole entry, looked up: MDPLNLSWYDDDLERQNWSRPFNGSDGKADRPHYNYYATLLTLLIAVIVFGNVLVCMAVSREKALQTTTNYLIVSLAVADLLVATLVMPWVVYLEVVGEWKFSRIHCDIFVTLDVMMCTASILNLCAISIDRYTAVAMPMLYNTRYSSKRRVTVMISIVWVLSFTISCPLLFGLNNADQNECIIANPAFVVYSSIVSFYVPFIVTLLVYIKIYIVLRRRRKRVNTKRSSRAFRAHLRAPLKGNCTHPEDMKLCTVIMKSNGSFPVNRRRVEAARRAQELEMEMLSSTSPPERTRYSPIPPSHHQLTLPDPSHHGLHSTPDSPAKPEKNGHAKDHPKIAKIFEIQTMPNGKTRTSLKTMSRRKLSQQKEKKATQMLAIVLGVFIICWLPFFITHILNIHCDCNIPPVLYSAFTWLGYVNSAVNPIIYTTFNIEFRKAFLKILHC
# UniProt P28223, whole entry, looked up: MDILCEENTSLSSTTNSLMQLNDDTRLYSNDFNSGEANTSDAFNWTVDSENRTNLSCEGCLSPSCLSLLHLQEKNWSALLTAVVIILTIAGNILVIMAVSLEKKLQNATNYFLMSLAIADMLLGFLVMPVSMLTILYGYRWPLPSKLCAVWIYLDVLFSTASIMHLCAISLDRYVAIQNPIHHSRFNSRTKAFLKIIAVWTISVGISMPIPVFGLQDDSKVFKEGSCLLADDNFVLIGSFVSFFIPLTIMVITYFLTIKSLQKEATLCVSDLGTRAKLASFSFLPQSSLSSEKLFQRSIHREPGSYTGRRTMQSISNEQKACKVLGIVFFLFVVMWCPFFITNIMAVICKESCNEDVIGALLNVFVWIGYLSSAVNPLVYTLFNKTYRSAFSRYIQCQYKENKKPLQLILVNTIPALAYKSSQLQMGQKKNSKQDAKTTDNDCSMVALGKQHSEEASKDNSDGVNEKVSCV
# Several values for one entry are separate records, joined by “and”; a condition that tells them apart may be missing. Equal entries are not always repeated. The inconclusive results got no clear call from the source; some entries with a clear call stand among them for comparison. For some of these results: Potencies beside an inconclusive call are fits to weak or partial responses and may not hold up. A structure can be active in one record and inactive in another. Activity calls are given as the source filed them. Unless noted, the call rests on the fitted dose curve.
# Key:
# [1] = p53 small molecule agonists, cell-based qHTS assay with rat liver microsomes: qHTS cell viability counter screen (AID 1963580); further: nearly all actives have a fitted effect of over 45% in size; further: potency means the concentration at half of the fitted maximal effect
# How it was run: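 Luminescent ATP readout (CellTiter-Glo, 30 min at room temperature) reports viability of p53RE-bla HCT-116 cells after 16 h at 37 C with test compounds under metabolic activation by rat liver microsomes and NADPH at 0.5 mg/mL final each.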
# [2] = p53 small molecule agonists, cell-based qHTS assay (AID 1963582; active means well fitted activation curve with a large enough effect in the signal ratio in the repeat runs, not every such curve was filed as active; inconclusive means weak or mixed curves; the % refers to the signal ratio; further: potency means the concentration at half of the fitted maximal effect; on activation: on the % scale 0 is the no-effect control and ±100 the full control effect); settings: HCT-116 p53RE-bla reporter, beta-lactamase FRET ratio, 16 h; activation: at 66 µM (top of the series) unless noted
# How it was run: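 Measured: fluorescence from cleaved LiveBLAzer substrate. System: p53RE-bla cells, 16 h compound treatment at 37 C, 2 h substrate step at room temperature.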
# [3] = target: Muscarinic acetylcholine receptor M1 (Homo sapiens) (UniProt P11229); test: Cholinergic receptor muscarinic 1 (CHRM1) small molecule antagonists, cell-based qHTS assay (AID 1963588); further: potency means the concentration at half of the fitted maximal effect; nearly all actives have a fitted effect of over 40% in size
# How it was run: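 Compounds were tested at 15 concentrations in three independent runs. Dye-loaded CHRM1-CHO cells were exposed 5 min at room temperature before stimulation by acetylcholine added at 50nM. Intracellular calcium was read kinetically on FDSS for 3 min.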
# [4] = cAMP Responsive Elements (CRE) small molecule agonists, cell-based qHTS assay (AID 1963590); settings: CRE-bla HEK293T, beta-lactamase FRET ratio, 3 h; activation: at 92.4 µM (top of the series) unless noted; further: potency means the concentration at half of the fitted maximal effect
# How it was run: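 Test agents in DMSO were incubated 3 h at 37 C/5% CO2 with CRE-bla HEK 293T cells seeded 18 h earlier; LiveBLAzer B/G FRET substrate was added and read after 2 h at room temperature.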
# [5] = cAMP Responsive Elements (CRE) small molecule antagonists, cell-based qHTS assay (AID 1963591; active means well fitted inhibition curve with a large enough effect in the signal ratio in the repeat runs, not every such curve was filed as active; inconclusive means weak or mixed curves, or effect the other way; the % refers to the signal ratio; further: potency means the concentration at half of the fitted maximal effect; on activity change, negative = inhibition: on the % scale 0 is the no-effect control and ±100 the full control effect); settings: CRE-bla HEK293T, beta-lactamase FRET ratio; activity change, negative = inhibition: at 92.4 µM (top of the series) unless noted
# How it was run: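 Reporter line CRE-bla HEK 293T in dialyzed-FBS DMEM; cells preincubated 18 h, treated 3 h with compound plus NKH477 (0.25 uM final); LiveBLAzer FRET, 2 h RT.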
# [6] = target: D(2) dopamine receptor (Homo sapiens) (UniProt P14416); test: Dopamine D2 receptor (DRD2) small molecule agonists, cell-based qHTS assay (AID 1963594); settings: HEK293-DRD2 cAMP HTRF, agonist mode, 30 min; activation: at 92.4 µM (top of the series) unless noted; further: on the % scale 0 is the no-effect control and ±100 the full control effect; nearly all actives have a fitted effect of over 35% in size
# How it was run: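 HEK293 cells stably expressing DRD2 were cultured 24 h at 37 C, then given Ro20-1724 (0.1 mM final) and compounds for 10 min at room temperature. NKH477 (200nM) was then added for 30 min. cAMP was read by HTRF.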
# [7] = p53 small molecule agonists, cell-based qHTS assay: qHTS cell viability counter screen (AID 1963581); further: nearly all actives have a fitted effect of over 45% in size; further: potency means the concentration at half of the fitted maximal effect
# How it was run: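 qHTS counter screen: 16 h compound exposure at 37 C of p53RE-bla HCT-116 cells (4,000 per well, seeded 5 h prior), cell viability by ATP luminescence.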
# [8] = target: 5-hydroxytryptamine receptor 2A (Homo sapiens) (UniProt P28223); test: 5-hydroxytryptamine receptor 2A (HTR2A) small molecule antagonists, cell-based qHTS assay (AID 1963586); further: nearly all actives have a fitted effect of over 45% in size; further: potency means the concentration at half of the fitted maximal effect
# How it was run: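 CHO cells stably expressing human HTR2A were plated for 18 h at 37 C, then loaded with calcium dye for 1 h. Compounds were preincubated 5 min at room temperature before DOI (4 nM solution) was added. Kinetic fluorescence was read for 3 min.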
# [9] = target: Beta-2 adrenergic receptor (Homo sapiens) (UniProt P07550); test: Adrenergic beta2 receptor (ADRB2) small molecule agonists, cell-based qHTS assay (AID 1963593); settings: CHO-ADRB2 cells, cAMP HTRF, 30 min; activation: at 92.4 µM (top of the series) unless noted; further: potency means the concentration at half of the fitted maximal effect;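 on activation: CHO cells stably overexpressing human ADRB2; on the % scale 0 is the no-effect control and ±100 the full control effect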
# How it was run: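 CHO cells stably over-expressing ADRB2 were plated overnight at 37C, then dosed with compounds plus a stimulation mix containing 100uM IBMX and 25uM Ro-20-1724 for 0.5hr at room temperature. cAMP was measured by HTRF competition, 1hr.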
# [10] = target: Beta-2 adrenergic receptor (Homo sapiens) (UniProt P07550); test: Adrenergic beta2 receptor (ADRB2) small molecule antagonists, cell-based qHTS assay (AID 1963592); settings: CHO-ADRB2 cells, isoproterenol-stimulated cAMP HTRF ratio, 0.5 h; activity change, negative = inhibition: at 92.4 µM (top of the series) unless noted; further: on the % scale 0 is the no-effect control and ±100 the full control effect; nearly all actives have a fitted effect of over 50% in size
# How it was run: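 Assay format: CHO-ADRB2 cells, 18-20hr seeding at 37C/5% CO2, then compound plus 1nM isoproterenol agonist mix for 0.5hr RT. Homogeneous time-resolved fluorescence cAMP detection after 1hr, expressed as 665/615 nm ratio.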
# [11] = target: 5-hydroxytryptamine receptor 2A (Homo sapiens) (UniProt P28223); test: 5-hydroxytryptamine receptor 2A (HTR2A) small molecule agonists, cell-based qHTS assay (AID 1963587); settings: HTR2A-CHO cells, calcium flux fluorescence, agonist mode; activation: at 76.8 µM (top of the series); further: on the % scale 0 is the no-effect control and ±100 the full control effect; nearly all actives have a fitted effect of over 30% in size
# How it was run: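 HTR2A-CHO cells, plated 18 h at 37 C/5% CO2, dye-loaded 1 h at 37 C; compounds in DMSO added by pin tool (agonist mode). Intracellular calcium flux read as kinetic fluorescence on FDSS over 2 min at 1 s intervals.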
# [12] = p53 small molecule agonists, cell-based qHTS assay with human liver microsomes: qHTS cell viability counter screen (AID 1963579); further: potency means the concentration at half of the fitted maximal effect; nearly all actives have a fitted effect of over 45% in size
# How it was run: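 Cytotoxicity counter screen: p53RE-bla, 4,000 cells/well; 5 h settle, 37 C/5% CO2; cpd + HLM 0.5 mg/mL + NADPH 0.5 mg/mL (final); 16 h, 37 C; CellTiter-Glo, 30 min RT, luminescence.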
structure (smiles),measurement,setting,value
CCCCc1c(C)nc(NCC)nc1OS(=O)(=O)N(C)C,Potency,[1],"inconclusive: 40.8 µM [rising, partial curve]"
same,Potency,[2],"inconclusive: 8.14 µM [rising, full curve]"
same,Potency,[3],"inconclusive: 42.1 µM [inhibitor, single point]"
same,Potency,[4],"inconclusive: 54.5 µM [fluorescent, partial curve]"
same,Potency,[5],"inconclusive: 13.7 µM [activator, full curve, poor fit]"
same,activation,[6],inconclusive: 80.2%
[As]#[In],Potency,[1],inactive
same,Potency,[7],inactive
same,Potency,[8],"inconclusive: 0.84 µM [inhibitor, single point]"
same,Potency,[9],inactive
N#CSCc1ccccc1,Potency,[1],"inconclusive: 1.63 µM [cytotoxic, single point]"
same,activation,[2],inconclusive: 13.8%
same,Potency,[5],"inconclusive: 0.0017 µM [rising, full curve, poor fit]"
same,Potency,[9],inactive
CC(C)CCCCCCCOC(=O)c1ccccc1C(=O)OCCCCCCCC(C)C,Potency,[1],inactive
same,Potency,[7],"inconclusive: 20.4 µM [rising, single point]"
same,Potency,[9],inactive
CC(=O)C1CCOC1=O (stereo not given),Potency,[1],"inconclusive: 53.5 µM [rising, single point]"
same,Potency,[7],inactive
same,Potency,[10],inactive
same,activation,[9],inconclusive: 5.23% [at 42.5 µM]
N#Cc1c(-c2ccc(Cl)cc2)[nH]c(C(F)(F)F)c1Br,Potency,[1],"inconclusive: 1.29 µM [cytotoxic, full curve, poor fit]"
same,Potency,[2],"inconclusive: 0.145 µM [fluorescent, partial curve]"
same,Potency,[8],"inconclusive: 8.4 µM [inhibitor, partial curve]"
same,Potency,[5],"inconclusive: 1.93 µM [fluorescent, full curve]"
same,"activity change, negative = inhibition",[10],inconclusive: -31.5%
same,Potency,[9],"inconclusive: 2.17 µM [inhibitor, full curve]"
CN(C)C(=S)S,Potency,[1],active: 8.08 µM
same,Potency,[7],"inconclusive: 20.9 µM [cytotoxic, single point] and inconclusive: 1.02 µM [cytotoxic, partial curve, poor fit]"
same,Potency,[5],"inconclusive: 39.4 µM [inhibitor, partial curve]"
same,"activity change, negative = inhibition",[5],inconclusive: -23.6%
same,Potency,[9],"inconclusive: 78.5 nM [inhibitor, partial curve, poor fit] and inactive"
CC(=O)CCc1ccc2c(c1)OCO2,Potency,[1],"inconclusive: 18.2 µM [rising, single point]"
same,Potency,[2],inactive
same,Potency,[11],inactive
CCCOC(=O)c1ccccc1C(=O)OCCC,Potency,[1],inactive
same,Potency,[2],"inconclusive: 18.5 µM [fluorescent, full curve, poor fit]"
same,"activity change, negative = inhibition",[5],inconclusive: -20.4%
same,Potency,[9],"inconclusive: 2.77 µM [inhibitor, full curve, poor fit] and inactive"
CCC(=O)Nc1ccc(Cl)c(Cl)c1,Potency,[1],inactive
same,Potency,[7],"inconclusive: 40.8 µM [rising, partial curve, poor fit]"
same,Potency,[2],"inconclusive: 37.1 µM [rising, partial curve, poor fit]"
same,Potency,[8],"inconclusive: 48.2 µM [inhibitor, partial curve, poor fit]"
same,Potency,[9],inactive
CCOP(=O)(Sc1ccccc1)Sc1ccccc1,Potency,[1],inactive
same,Potency,[8],inactive
CNC(=O)N(C)c1nc2ccccc2s1,Potency,[1],inactive
CCOP(=S)(OCC)Oc1ccc(S(C)=O)cc1 (stereo not given),Potency,[1],inactive
same,Potency,[7],inactive
same,Potency,[8],inactive
CC1(C)CN=C(NN=C(/C=C/c2ccc(C(F)(F)F)cc2)/C=C/c2ccc(C(F)(F)F)cc2)NC1,Potency,[1],"inconclusive: 40.8 µM [cytotoxic, partial curve, poor fit]"
same,Potency,[7],"inconclusive: 18.2 µM [cytotoxic, single point]"
same,Potency,[2],"inconclusive: 20.4 µM [falling, single point]"
same,Potency,[4],"inconclusive: 24.3 µM [rising, partial curve]"
same,Potency,[5],inconclusive: 11.4 µM [activator]
same,activation,[9],inconclusive: -7.77%
CC(=O)NC1CCSC1=O (stereo not given),Potency,[12],"inconclusive: 0.5 µM [rising, full curve, poor fit]"
same,Potency,[9],inactive
same,activation,[6],inconclusive: 27.4% [at 42.5 µM]
Oc1cccc(-c2ccccc2)c1,Potency,[1],"inconclusive: 1.82 µM [cytotoxic, single point]"
same,Potency,[8],inactive
CCCn1cc[n+](C)c1,Potency,[1],"inconclusive: 921 nM [cytotoxic, single point] and inactive"
same,Potency,[7],"inconclusive: 51.1 µM [rising, single point]"
same,activation,[9],inconclusive: -46.1% and inconclusive: -46.6%
COC1=CC(=O)O[C@@H](/C=C/c2ccc3c(c2)OCO3)C1,Potency,[1],inactive
same,Potency,[2],"inconclusive: 19.6 µM [rising, partial curve, poor fit]"
same,Potency,[8],"inconclusive: 0.0143 µM [inhibitor, full curve, poor fit]"
same,Potency,[4],"inconclusive: 23.3 µM [rising, partial curve]"
same,"activity change, negative = inhibition",[5],inconclusive: 22.7%
same,activation,[9],inconclusive: 0.73%

# Quoted at random: three entries already listed, in no set order.
structure (smiles),measurement,setting,value
N#CSCc1ccccc1,activation,[2],inconclusive: 13.8%
CCOP(=O)(Sc1ccccc1)Sc1ccccc1,Potency,[8],inactive
CC(=O)NC1CCSC1=O (stereo not given),Potency,[12],"inconclusive: 0.5 µM [rising, full curve, poor fit]"

# Shown bar-delimited: entries from further up.
structure (smiles) | measurement | setting | value
N#Cc1c(-c2ccc(Cl)cc2)[nH]c(C(F)(F)F)c1Br | Potency | [5] | inconclusive: 1.93 µM [fluorescent, full curve]
CCCOC(=O)c1ccccc1C(=O)OCCC | Potency | [2] | inconclusive: 18.5 µM [fluorescent, full curve, poor fit]
